Laboratory results taken from paper PMC5384328.

Sequences of proteins named here, by UniProt entry; tags and fusion partners are left off.
UniProt P55060: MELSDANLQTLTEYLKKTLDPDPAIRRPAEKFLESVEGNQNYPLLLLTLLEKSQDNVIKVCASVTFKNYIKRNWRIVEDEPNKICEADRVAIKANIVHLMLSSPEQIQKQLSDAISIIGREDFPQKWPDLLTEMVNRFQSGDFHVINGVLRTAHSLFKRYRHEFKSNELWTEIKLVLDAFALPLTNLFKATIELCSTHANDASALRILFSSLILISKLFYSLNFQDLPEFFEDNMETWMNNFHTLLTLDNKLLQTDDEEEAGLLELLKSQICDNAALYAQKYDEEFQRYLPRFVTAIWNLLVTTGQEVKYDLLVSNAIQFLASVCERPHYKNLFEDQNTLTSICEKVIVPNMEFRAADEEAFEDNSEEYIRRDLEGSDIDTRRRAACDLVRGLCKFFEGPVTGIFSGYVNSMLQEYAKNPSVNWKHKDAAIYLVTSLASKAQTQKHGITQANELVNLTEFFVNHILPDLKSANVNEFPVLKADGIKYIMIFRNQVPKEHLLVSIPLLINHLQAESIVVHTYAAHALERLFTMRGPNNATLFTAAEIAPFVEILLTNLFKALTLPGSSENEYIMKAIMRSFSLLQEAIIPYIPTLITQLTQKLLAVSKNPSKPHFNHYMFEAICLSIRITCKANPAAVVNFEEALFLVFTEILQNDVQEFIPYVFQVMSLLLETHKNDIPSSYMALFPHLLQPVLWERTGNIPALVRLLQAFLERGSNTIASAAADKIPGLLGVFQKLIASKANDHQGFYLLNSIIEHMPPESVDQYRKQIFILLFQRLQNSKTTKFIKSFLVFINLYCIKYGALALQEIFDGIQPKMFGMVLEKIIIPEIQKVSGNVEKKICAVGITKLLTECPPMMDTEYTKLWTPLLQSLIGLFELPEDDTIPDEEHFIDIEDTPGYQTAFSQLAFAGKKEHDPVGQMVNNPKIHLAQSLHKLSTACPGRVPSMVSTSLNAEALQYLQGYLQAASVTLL
UniProt Q04206: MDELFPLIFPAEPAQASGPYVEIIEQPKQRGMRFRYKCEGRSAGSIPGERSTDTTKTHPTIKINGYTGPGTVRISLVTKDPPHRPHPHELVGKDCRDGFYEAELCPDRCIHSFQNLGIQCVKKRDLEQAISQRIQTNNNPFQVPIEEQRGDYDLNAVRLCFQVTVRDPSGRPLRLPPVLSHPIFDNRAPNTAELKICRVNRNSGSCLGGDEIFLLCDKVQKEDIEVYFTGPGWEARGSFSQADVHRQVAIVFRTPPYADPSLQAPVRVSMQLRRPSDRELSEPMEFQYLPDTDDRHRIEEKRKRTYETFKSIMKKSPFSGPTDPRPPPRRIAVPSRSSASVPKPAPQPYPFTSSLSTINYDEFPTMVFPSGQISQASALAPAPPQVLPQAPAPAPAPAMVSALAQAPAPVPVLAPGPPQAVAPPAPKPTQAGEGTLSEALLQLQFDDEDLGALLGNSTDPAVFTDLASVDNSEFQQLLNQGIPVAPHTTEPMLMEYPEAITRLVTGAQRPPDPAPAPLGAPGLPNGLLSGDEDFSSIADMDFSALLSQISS
UniProt P12956: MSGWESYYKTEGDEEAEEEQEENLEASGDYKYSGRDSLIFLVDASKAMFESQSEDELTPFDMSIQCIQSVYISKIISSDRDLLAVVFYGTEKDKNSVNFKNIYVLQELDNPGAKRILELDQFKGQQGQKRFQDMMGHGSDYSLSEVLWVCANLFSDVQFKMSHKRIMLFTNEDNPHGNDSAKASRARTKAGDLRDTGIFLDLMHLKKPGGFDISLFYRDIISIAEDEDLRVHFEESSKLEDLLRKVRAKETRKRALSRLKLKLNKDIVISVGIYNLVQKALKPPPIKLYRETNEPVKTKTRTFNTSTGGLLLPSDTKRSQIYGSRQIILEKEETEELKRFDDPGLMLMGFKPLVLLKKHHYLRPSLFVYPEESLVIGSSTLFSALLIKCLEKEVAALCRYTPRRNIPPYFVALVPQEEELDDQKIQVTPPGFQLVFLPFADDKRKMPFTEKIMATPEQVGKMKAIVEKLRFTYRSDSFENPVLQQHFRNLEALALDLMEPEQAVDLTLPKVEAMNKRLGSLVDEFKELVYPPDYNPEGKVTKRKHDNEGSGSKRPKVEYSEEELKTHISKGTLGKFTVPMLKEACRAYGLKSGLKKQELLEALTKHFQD
UniProt P52701: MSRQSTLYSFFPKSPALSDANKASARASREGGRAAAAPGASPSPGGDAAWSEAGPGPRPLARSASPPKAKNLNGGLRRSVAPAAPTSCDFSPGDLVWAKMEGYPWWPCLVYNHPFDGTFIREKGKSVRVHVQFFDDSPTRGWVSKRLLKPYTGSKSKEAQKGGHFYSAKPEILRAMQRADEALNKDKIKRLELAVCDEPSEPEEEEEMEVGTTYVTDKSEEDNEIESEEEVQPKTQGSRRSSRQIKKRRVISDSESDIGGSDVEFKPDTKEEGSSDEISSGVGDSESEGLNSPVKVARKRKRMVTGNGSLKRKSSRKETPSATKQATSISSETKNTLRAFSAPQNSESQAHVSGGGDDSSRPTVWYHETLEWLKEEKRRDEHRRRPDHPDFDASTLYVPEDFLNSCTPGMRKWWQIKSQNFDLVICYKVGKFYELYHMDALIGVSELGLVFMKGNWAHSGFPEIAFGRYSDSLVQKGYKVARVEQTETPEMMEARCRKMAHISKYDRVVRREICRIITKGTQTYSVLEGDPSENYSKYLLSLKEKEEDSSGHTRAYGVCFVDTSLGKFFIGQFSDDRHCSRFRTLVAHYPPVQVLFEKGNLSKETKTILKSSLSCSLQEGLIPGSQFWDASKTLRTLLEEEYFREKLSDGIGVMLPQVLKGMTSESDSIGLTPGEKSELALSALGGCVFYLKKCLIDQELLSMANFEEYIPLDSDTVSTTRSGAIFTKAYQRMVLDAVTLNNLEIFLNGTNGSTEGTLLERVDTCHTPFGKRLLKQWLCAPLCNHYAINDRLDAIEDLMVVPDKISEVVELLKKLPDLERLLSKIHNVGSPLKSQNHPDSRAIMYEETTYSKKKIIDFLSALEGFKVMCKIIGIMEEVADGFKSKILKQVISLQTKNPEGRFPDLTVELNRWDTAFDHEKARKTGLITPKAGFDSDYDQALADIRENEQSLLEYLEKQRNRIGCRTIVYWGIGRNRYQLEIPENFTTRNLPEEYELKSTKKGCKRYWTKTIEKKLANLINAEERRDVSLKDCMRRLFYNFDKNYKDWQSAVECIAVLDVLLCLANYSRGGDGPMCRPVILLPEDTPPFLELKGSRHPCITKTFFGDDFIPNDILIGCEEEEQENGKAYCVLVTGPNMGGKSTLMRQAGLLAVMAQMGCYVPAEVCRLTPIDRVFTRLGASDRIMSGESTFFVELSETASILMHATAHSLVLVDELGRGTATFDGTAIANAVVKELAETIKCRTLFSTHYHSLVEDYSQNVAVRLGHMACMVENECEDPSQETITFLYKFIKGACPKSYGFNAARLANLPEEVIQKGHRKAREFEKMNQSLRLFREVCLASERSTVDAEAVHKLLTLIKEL

B1: PYCR2 (protein, UniProt Q96C36 1-320)
chain: MSVGFIGAGQLAYALARGFTAAGILSAHKIIASSPEMNLPTVSALRKMGVNLTRSNKETVKHSDVLFLAVKPHIIPFILDEIGADVQARHIVVSCAAGVTISSVEKKLMAFQPAPKVIRCMTNTPVVVQEGATVYATGTHALVEDGQLLEQLMSSVGFCTEVEEDLIDAVTGLSGSGPAYAFMALDALADGGVKMGLPRRLAIQLGAQALLGAAKMLLDSEQHPCQLKDNVCSPGGATIHALHFLESGGFRSLLINAVEASCIRTRELQSMADQEKISPAALKKTLLDRVKLESPTVSTLTPSSPGKLLTRSLALGGKKD
B2: PYCR1 (protein, UniProt P32322 1-319)
chain: MSVGFIGAGQLAFALAKGFTAAGVLAAHKIMASSPDMDLATVSALRKMGVKLTPHNKETVQHSDVLFLAVKPHIIPFILDEIGADIEDRHIVVSCAAGVTISSIEKKLSAFRPAPRVIRCMTNTPVVVREGATVYATGTHAQVEDGRLMEQLLSSVGFCTEVEEDLIDAVTGLSGSGPAYAFTALDALADGGVKMGLPRRLAVRLGAQALLGAAKMLLHSEQHPGQLKDNVSSPGGATIHALHVLESGGFRSLLINAVEASCIRTRELQSMADQEQVSPAAIKKTILDKVKLDSPAGTALSPSGHTKLLPRSLAPAGKD

Each molecule was assayed against chromosome segregation 1-like (CSE1L) protein (human (endogenous in MNNG/HOS and U2OS)) (UniProt P55060) (assay: affinity purification with mass spectrometry; MNNG/HOS lysate (3000 ug protein) incubated with anti-CSE1L antibody at 4 °C overnight, protein A/G magnetic beads 3 h at 4 °C, washed with PBS containing 1% Triton X-100; CSE1L-bound proteins separated by SDS-PAGE, trypsin digestion, NanoLC-MS/MS; IgG control).
In the case of RELA (from UniProt Q04206 1-551), the binding is reported as “binds”.
In the case of XRCC6 (from UniProt P12956 1-609), the binding is reported as “binds”.
For “mutS homolog 6 (MSH6) (from UniProt P52701 1-1360)”, the binding was “binds”.
For B1, the binding was “binds”.
B2 was tested, and the binding was “binds”.

No constants are given. Whether binding was seen depends on the method and setting. Binding seen in cells or lysates may run through a third protein. These calls come from enrichment with a bait or labelling near it, and not all partners need be listed.
